Measured values taken from publication PMC4745755.
These are yes or no findings as the source states them, for the method shown. In cells and extracts the contact can be indirect. Binding can be weak; no strength is given.

B1: Tetraspanin CD81 (protein, UniProt P60033 1-236)
chain: MGVEGCTKCIKYLLFVFNFVFWLAGGVILGVALWLRHDPQTTNLLYLELGDKPAPNTFYVGIYILIAVGAVMMFVGFLGCYGAIQESQCLLGTFFTCLVILFACEVAAGIWGFVNKDQIAKDVKQFYDQALQQAVVDDDANNAKAVVKTFHETLDCCGSSTLTALTTSVLKNNLCPSGSNIISNLFKEDCHQKIDDLFSGKLYLIGIAAIVVAVIMIFEMILSMVLCCGIRNSSVY
modifications: [^3H]-palmitate, metabolic labelling (residues not stated)
B2: Tetraspanin CD82 (protein, UniProt P27701 1-267)
chain: MGSACIKVTKYFLFLFNLIFFILGAVILGFGVWILADKSSFISVLQTSSSSLRMGAYVFIGVGAVTMLMGFLGCIGAVNEVRCLLGLYFAFLLLILIAQVTAGALFYFNMGKLKQEMGGIVTELIRDYNSSREDSLQDAWDYVQAQVKCCGWVSFYNWTDNAELMNRPEVTYPCSCEVKGEEDNSLSVRKGFCEAPGNRTQSGNHPEDWPVYQEGCMEKVQAWLQENLGIILGVGVGVAIIELLGMVLSICLCRHVHSEDYSKVPKY
modifications: [^3H]-palmitate, metabolic labelling (residues not stated)

Biological target: α3β1 integrin (human (endogenous in glioblastoma cell lines))
Experiment: co-IP; lysates of [^3H]-palmitate-labelled glioblastoma cell lines, lysed in 1% Brij-96 for 5 h at 4°C; immunoprecipitation with the indicated antibodies, radiographic detection of labelled proteins

| Binder | binding |
| --- | --- |
| B1 | binds |
| B2 | binds |
